# Some of the results follow. Further columns of the screen follow, without active or inactive calls. Most of these compounds were active or inconclusive in the main read-out, so they are no random draw. The note in brackets gives the kind of curve behind each potency; many fits are weak.
# Test: qHTS Assay for Lipid Storage Modulators in Drosophila S3 Cells;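 on cell number change: cells counted by Cell Tracker Red CMTPX staining in the red channel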
# Settings: BODIPY lipid droplet fluorescence, 18-24 h; for cell number change: measured here: cell count max response, cells fed with added oleic acid
# Procedure, shortened: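 Drosophila S3 cells loaded with oleic acid (400 uM, as added) and compounds at several concentrations; lipid droplets imaged by 488-nm laser-scanning cytometry, 500–530 nm intensity and object ratio to cell channel. Percent activity normalized to 20 uM Triacsin C.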
# [1] = measured here: lipid fluorescence (Fed channel) AC50, cells fed with added oleic acid
# [2] = measured here: cell number channel AC50, cells fed with added oleic acid
Compound,AC50 [1],cell number change,AC50 [2]
O=C(CNc1ccc2c(c1)OCO2)N/N=C\c1ccccc1Cl,"2.59 µM [rising, full curve]",–,–
O=C1c2ccc3c4c(ccc(c24)C(=O)N1c1cccc(O)c1)CC3,–,-4.21%,–
CN(C)C(=O)CN1C(=O)NC2(CCc3ccccc32)C1=O (configuration not stated),"3.66 µM [rising, single point]",-4.88%,–
Cc1ccc(C)c(NC(=S)N2CCC(N(C)CC3CCCO3)CC2)c1 (configuration not stated),"1.16 µM [falling, full curve]",-16.7%,"0.517 µM [falling, full curve, poor fit]"
Cc1ccc2nc(N3CCN(c4ccccc4)CC3)c(C=O)c(=O)n2c1,"14.6 µM [rising, partial curve]",66.8%,"8.2 µM [rising, partial curve]"
CCOc1ccc(C(CC(=O)O)NC(=O)COc2ccccc2)cc1OC (configuration not stated),"4.11 µM [falling, single point]",10.5%,"4.61 µM [falling, single point]"
CCOC(=O)CC(=O)CSc1nnc(Cn2c(=O)sc3ccccc32)n1C,"0.82 µM [falling, full curve, poor fit]",-18.2%,–
O=C(COC(=O)c1ccccn1)Nc1nc(-c2ccccc2)cs1,"6.31 µM [falling, partial curve]",-22.4%,–
CCN(CC(=O)Nc1ccc(OC)cc1)CC(=O)Nc1ccc(Cl)cc1F,"1.64 µM [rising, partial curve]",–,–
CC(=O)c1ccc(OCC(C)C)c(CC(C(N)=O)C(N)=O)c1,"5.8 µM [falling, single point]",3.46%,–
CCOC(=O)C1CCCN(C(=O)c2ccco2)C1 (configuration not stated),–,6.49%,–
Cc1cc(C)c2c(-n3cccc3)c(C(=O)NNS(=O)(=O)c3ccc(Cl)cc3)sc2n1,"29.1 µM [rising, single point]",6.9%,–
CCc1ccc(OCC(=O)NC(NC(=S)Nc2ccc(Cl)cc2)C(Cl)(Cl)Cl)cc1 (configuration not stated),"29.1 µM [falling, partial curve]",-77.3%,"32.6 µM [falling, single point]"
O=C(Nc1nnc(-c2ccc(Cl)cc2)o1)NC1CCCCC1,–,24.7%,"0.651 µM [falling, single point]"
CCCOc1ccc(-c2csc3ncn(Cc4ccc(C(=O)O)cc4)c(=O)c23)cc1,"5.17 µM [falling, single point]",106%,"4.11 µM [falling, single point]"
Cc1ccccc1N=C/C=C1\N(C)c2ccccc2C1(C)C,"29.1 µM [falling, single point]",-23.8%,–
Cc1cccc2c1N(CC(=O)OC(C)C)C(=O)C2=O,–,-14.5%,–
CNc1ccc2nnc(C(F)(F)C(F)(F)C(F)(F)F)n2n1,–,8.98%,–
C[C@@H](C(=O)Nc1ccc2ccccc2c1)[C@@H]1C[C@@]1(C)[C@@H](NC(=O)c1ccccc1)c1ccccc1,"9.2 µM [rising, partial curve]",0.312%,"0.146 µM [rising, full curve, poor fit]"
C(=N\Nc1ccc2nncn2n1)/c1ccccn1,"0.184 µM [falling, full curve]",6.78%,"0.184 µM [falling, full curve]"

Compound,AC50 [1],cell number change,AC50 [2]
Cn1c(SCc2cccc(C(F)(F)F)c2)nnc1-c1ccco1,"4.11 µM [rising, single point]",94.5%,"6.51 µM [rising, partial curve]"
Cc1cc(C)c(C2=Nn3c(C)nnc3SC2C)cc1C (configuration not stated),"6.51 µM [rising, single point]",-15.2%,–
Cc1ccc2cc(C#N)c(NCCCNC(=O)C3CCCO3)nc2c1 (configuration not stated),"5.17 µM [rising, partial curve]",–,"3.66 µM [rising, partial curve]"
CCOC(=O)c1cnn(-c2ncnc3sc(CC)cc23)c1N,"0.366 µM [rising, full curve, poor fit]",16.5%,–
O=C(Cc1nc2ccccc2[nH]c1=O)c1ccccc1,–,109%,"8.2 µM [rising, partial curve]"
CCSc1nnc(NC(=O)CSc2nc(C)cc(C)n2)s1,"1.84 µM [falling, partial curve]",23.4%,–
COc1ccc2nc(NC(=O)c3c(C)noc3C)sc2c1,"0.651 µM [rising, partial curve, poor fit]",12.9%,"0.164 µM [falling, full curve, poor fit]"
O=C(CCS(=O)(=O)c1ccccc1)N(CCCN1CCOCC1)c1nc2ccc(F)cc2s1,–,124%,"20.6 µM [rising, partial curve]"
O=C(CCNS(=O)(=O)c1ccccc1C(F)(F)F)N1CCN(S(=O)(=O)c2cccc(F)c2)CC1,–,16.7%,–
CCCCc1[nH]c(=O)c(C#N)c2c1CSC(C)(C)C2,"0.517 µM [rising, full curve]",2.87%,–
COc1ccc(S(=O)(=O)N2CCN(C(=O)NCc3ccc(C)cc3)CC2)cc1,–,19.8%,–
CCN(C(=O)COC(=O)c1cccc(S(=O)(=O)NCc2ccccc2)c1)c1ccccc1,–,80%,"29.1 µM [rising, single point]"
Cc1ccc(S(=O)(=O)N(C)C)cc1NC(=O)COC(=O)C1CC1,–,-50%,"0.13 µM [falling, full curve, poor fit]"
CCCOc1ccc(N2C(=O)CC(N3CCN(c4ccccc4OC)CC3)C2=O)cc1 (configuration not stated),"7.31 µM [falling, single point]",-7.38%,–
CC(=O)n1c(Cl)c(NC(=O)CCl)c2ccccc21,"0.082 µM [falling, full curve, poor fit]",16.8%,–
Cc1cccc(OCCNC(=O)CSc2ccc(C(F)(F)F)cc2[N+](=O)[O-])c1,"29.1 µM [rising, single point]",19.3%,–
Cc1cnc(SCc2cnc(C)nc2N)nc1,"2.06 µM [falling, partial curve]",7.01%,"3.26 µM [falling, single point]"
COc1ccc(CN(C)C(=O)C2CC(=O)N(c3ccc4c(c3)OCCO4)C2)c(OC)c1 (configuration not stated),"0.00461 µM [rising, full curve, poor fit]",-12.3%,–
Cc1cccc(NC(=O)Nc2cccc3ccccc23)c1,"18.4 µM [rising, single point]",19.6%,–
O=C(Nc1cccc(C(=O)N2CCN(c3ccccc3)CC2)c1)c1ccco1,"0.58 µM [rising, full curve, poor fit]",-15.9%,–

Compound,AC50 [1],cell number change,AC50 [2]
O=C1C2CCCN2C(=O)N1CCN1CCN(CCO)CC1 (configuration not stated),"29.1 µM [falling, single point]",7.01%,–
COc1ccc(C(=O)NCCc2c[nH]c3ccccc23)cc1S(=O)(=O)N1CCOCC1,"0.651 µM [rising, single point]",-18.9%,–
CN(C)CCN(Cc1cccs1)S(=O)(=O)c1csc(C(N)=O)c1,–,5.07%,–
CC(CN1c2ccccc2Sc2ccccc21)N(C)C (configuration not stated),"14.6 µM [rising, partial curve]",-12.5%,–
O=C(Cc1cccs1)N(c1ccccc1)C1C=CS(=O)(=O)C1 (configuration not stated),"25.9 µM [falling, single point]",2.07%,–
CC(Oc1ccc2c(-c3ccccc3)cc(=O)oc2c1)C(=O)N1CCC[C@@H]1C(N)=O (some centres not stated),"0.082 µM [rising, full curve, poor fit]",-12.9%,–
Cc1cc(/C=C2/NC(=O)N(c3ccccc3)C2=O)c(C)n1-c1cccnc1,"29.1 µM [rising, single point]",-35%,"9.2 µM [falling, partial curve]"
CC(=O)N(c1ccc(N(C(C)=O)S(=O)(=O)c2cccs2)cc1)S(=O)(=O)c1cccs1,"16.4 µM [falling, partial curve]",-73.4%,"20.6 µM [falling, partial curve]"
Cc1ccc2c(CC(=O)NCC(=O)Nc3c(C)cccc3C)coc2c1,"5.17 µM [rising, single point]",–,–
CNC1(c2nnnn2-c2c(C)cccc2C)CCOC(C)(C)C1 (configuration not stated),"0.82 µM [rising, full curve, poor fit]",28.5%,–
Cc1ccc(NC(=O)COC(=O)c2ccc([N+](=O)[O-])o2)cc1S(=O)(=O)N1CCCCCC1,–,-36.4%,"0.13 µM [falling, full curve]"
CC1CCN(C(=O)COC(=O)c2ccc(Br)o2)CC1,–,-0.527%,–
Cc1ccc(C)c(N2CCN(C(=O)Cn3ncc4c([nH]c5ccc(C)cc54)c3=O)CC2)c1,–,-30.7%,"36.6 µM [falling, single point]"
Cc1nc(-c2ccccc2)sc1-c1nc(-c2cccs2)ncc1S(=O)(=O)c1ccccc1,"0.411 µM [rising, single point]",14.7%,–
O=[N+]([O-])c1cccc(S(=O)(=O)N2CCC(c3nc(-c4ccncc4)no3)CC2)c1,–,–,"6.51 µM [rising, single point]"
COc1cc(Cl)c(C)cc1NC(=O)c1ccc(S(C)(=O)=O)cc1,–,–,"6.51 µM [falling, single point]"
O=C(NCCc1ccccc1)C(=O)c1c(-c2ccccc2)[nH]c2ccccc12,–,32.6%,"18.4 µM [rising, single point]"
COCCn1nnnc1C(C(C)C)N1CCN(C(=O)c2ccco2)CC1 (configuration not stated),"1.64 µM [falling, partial curve]",5.7%,–
O=C(c1cc2nc(-c3ccco3)cc(C(F)(F)F)n2n1)N1CCN(c2ccc(F)cc2)CC1,"0.00411 µM [rising, full curve, poor fit]",-3.98%,–

# Rewritten tab-delimited: 2 of the compounds above
Compound	AC50 [1]	cell number change	AC50 [2]
Cn1c(SCc2cccc(C(F)(F)F)c2)nnc1-c1ccco1	4.11 µM [rising, single point]	94.5%	6.51 µM [rising, partial curve]
Cc1cc(C)c(C2=Nn3c(C)nnc3SC2C)cc1C (configuration not stated)	6.51 µM [rising, single point]	-15.2%	–

# Source: PubChem BioAssay AID2685 (National Center for Advancing Translational Sciences (NCATS), 2010)
